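Genome-wide siRNA knockdown in TC32 Ewing sarcoma cells, comparing luciferase light from an NR0B1-promoter reporter with a CMV-promoter reporter 48 hours after transfection.
Each siRNA was applied at 20 nM.
A z-score of the log NR0B1-over-CMV signal, less the median of siRNAs with the same seed; more negative means a stronger specific loss of the NR0B1 reporter.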

The strongest results of the screen are mostly left out here.
Sequences are the guide (antisense) strand, without overhang.

| # | siRNA | gene | seed-corrected z-score |
|---|---|---|---|
| 1 | `AACCUGAACCAUUCGAUCC` | OSBPL9 | 0.2431 |
| 2 | `AAAGCCUUGACUGUUGAGC` | RS1 | -0.6203 |
| 3 | `UAUAAUUGGAUAAAUAGCC` | METTL9 | 0.448 |
| 4 | `UCCAUAUCUAAUACGUUCC` | KIAA1551 | -0.3898 |
| 5 | `UGUCUGUCCAUCACACUAG` | RCOR2 | -0.05118 |
| 6 | `UGUUCCAUUCAUGUAGUCC` | NMNAT1 | 0.6484 |
| 7 | `ACUUCGUCCACUGUAAUGC` | SAMD3 | -0.2259 |
| 8 | `UUCGUUACUUCCCAAAUCC` | ERBB2IP | 0.3321 |
| 9 | `UGCUUGAAUCUAAUCGUGU` | SIK1 | -1.179 |
| 10 | `UUGGUGUAGAGGUCGAACU` | MIOX | -0.1689 |
| 11 | `UGAUCUUGCAGAUCAGCUC` | DIRAS3 | 0.6055 |
| 12 | `UUUUUCAACAACACGAGUU` | GATAD2A | 1.266 |
| 13 | `AUACUUGAUAGCCUUGAUU` | NPSR1 | -0.846 |
| 14 | `AGAGAUUUUUGAGAUAUUG` | EXOC5 | 1.12 |
| 15 | `UUCACCAAUAUAUACUUUC` | PIP4K2C | -0.2875 |
| 16 | `AAAUCUGUCUCGAUGAUCU` | SLC39A3 | -0.0874 |
| 17 | `AAAGGCACCGAGCACUUUC` | HBB | 0.4003 |
| 18 | `UAUUAAUUCGGAAAAUAGC` | CCDC64B | 0.5545 |
| 19 | `UCGAAUUCUAGUUUCACCC` | SPINK5 | -0.2136 |
| 20 | `AUCCGAAAGAUUUAGAUCU` | ANKS4B | -0.796 |
| 21 | `UUUGGUAAGCAGAUCCACA` | ZFAND2B | 0.8796 |
| 22 | `UCUCCUAUAAUACAGAAGC` | CAAP1 | 0.246 |
| 23 | `UGGGUAGUCGGAUAGCUCC` | SH2B2 | 0.6114 |
| 24 | `UUAAGGCUCUGAAUCCUUC` | FAM13A | 0.113 |
| 25 | `UUGCGGAUGAUGAAAACUU` | SOAT2 | 0.3984 |
| 26 | `UCUUCGUGGACAAACUUGC` | SGSM1 | 0.7565 |
| 27 | `UUUCCAAUUGUAUAGCUUC` | C6orf118 | 0.9246 |
| 28 | `AAACCUUCGUUCACAGUCC` | WT1 | -0.07322 |
| 29 | `UUUUAGUUUCACGACGUGG` | SDCCAG3 | 0.5281 |
| 30 | `UCGUGGUUCAGGUUCAUCC` | ADAD1 | -0.433 |
| 31 | `UUCUUGGUACUUGUCAUCC` | C4orf17 | 0.8861 |
| 32 | `UUUCCGUCCAAUCAGCCUC` | HSPA2 | 0.089 |
| 33 | `AUUCCGUUAAUCUCAAAUG` | WDR63 | -0.3306 |
| 34 | `AAGCCCAUGACGUAGAUGC` | PSAT1 | -0.4843 |
| 35 | `UUUCGUUUCCAGAAGAGGC` | KDM3B | 1.483 |
| 36 | `UCUUCUUUGAGCAUUUCGG` | CUEDC2 | 0.4608 |
| 37 | `UUUGUUCAACUUUGGAUCC` | HNRNPAB | -0.5666 |
| 38 | `UCAGAUGCAACUUCUAAGC` | HEPACAM2 | 0.3969 |
| 39 | `UUCCAUGAAGUCGUCAUCG` | HEXIM1 | -1.302 |
| 40 | `UAGUCGGUCACCAGUUUGG` | HBS1L | -0.2961 |
| 41 | `UGGAGUAUCAGAGUUGAGU` | DMRTC2 | -0.6144 |
| 42 | `UCUUGGAACUGAGGUAUGC` | CDY2A | -0.9204 |
| 43 | `AAAGCGAAUGUAGUGUUUG` | SETD5 | 0.007932 |
| 44 | `UGCUAAGUAAGAUAGUGCC` | LMLN | -0.01618 |
| 45 | `UUAGGUCCAGGACCAGCUG` | GRIN3B | 0.9254 |
| 46 | `UAUUGAGUGACUUCUACAG` | NUP133 | 0.3814 |
| 47 | `UCAAUAUCCUCAGGUGGGC` | FAM107B | -0.3415 |
| 48 | `AAAGAGUUCAUGUACCACC` | NUDT22 | -0.4205 |
| 49 | `UGAAAAACUCAGGAGAAGG` | LHPP | 0.3761 |
| 50 | `AAUUUGAGGAGGAUCAUGC` | MROH5 | -0.4374 |
| 51 | `UUGCUGAUUACUGACAUUG` | ICK | 0.2785 |
| 52 | `UUCAAUGCUACUUAGCAGG` | KLHL12 | -0.1745 |
| 53 | `UUCUAGAUAGCCCACAUUC` | B4GALT4 | -0.4599 |
| 54 | `UUCCGUUAAAAACAGCACC` | RTN3 | 0.1443 |

7 of the entries, repeated:

ACUUCGUCCACUGUAAUGC against SAMD3 read seed-corrected z-score -0.2259.
UUCUAGAUAGCCCACAUUC against B4GALT4 read seed-corrected z-score -0.4599.
UUUUAGUUUCACGACGUGG against SDCCAG3 read seed-corrected z-score 0.5281.
UGUCUGUCCAUCACACUAG against RCOR2 read seed-corrected z-score -0.05118.
UUUCCGUCCAAUCAGCCUC against HSPA2 read seed-corrected z-score 0.089.
UUUGGUAAGCAGAUCCACA against ZFAND2B read seed-corrected z-score 0.8796.
UAUAAUUGGAUAAAUAGCC against METTL9 read seed-corrected z-score 0.448.

The results are deposited in PubChem (AID1159506; NCATS, 2015).